{"source": "patent US20220087961A1", "about": "“TREATMENT METHODS OF TRIPHENYL CALCILYTIC COMPOUNDS” (CALCILYTIX THERAPEUTICS, INC., priority 2020, published 2022)", "key": {"[1]": {"tested_on": "healthy volunteers and postmenopausal women with osteoporosis", "conditions": "cited from earlier work"}, "subjects with ADH1 [2]": {"tested_on": "subjects with ADH1", "test": "Phase 2b open-label dose-ranging study, Period 2", "assay_type": "in vivo, human", "description": "Period 2: an inpatient stay that consists of 5 dosing days during which subjects will receive BID doses of CLTX-305 based on individual responses from Period 1 (for subjects who complete Period 1) or review of aggregate data from Period 1 (for subjects in Cohort 2 entering Period 2 without prior exposure to CLTX-305). The initial dose, dose level 1 (DL1) will be administered for 2 days (48 hours) with cCa monitoring. Participants will undergo encaleret dose up- or down-titration depending on cCa levels, with a potential increase in dose if cCa remains below the lower limit of normal and potential decrease in dose if cCa is greater than or equal to the upper limit of normal. A final test day (Day 5) will include frequent blood and urine sampling to collect 24-hour PK/PD profiles after at least 3 consecutive days of dosing (at either DL1 or DL2).\nIn Period 2, eligible Cohort 1 subjects, who have completed Period 1, may return after at least 8 weeks for admission to NIH for Period 2. After all Cohort 1 subjects have finished Period 1 and the data analyzed, the Sponsor will open enrolment for Cohort 2 subjects. Eligible Cohort 2 subjects may enroll directly into Period 2, after completing the screening and consent process per protocol. In Period 2 all subjects will initiate CLTX-305 BID dosing given within 30 minutes prior to breakfast and dinner on Days 1 and 2. cCa concentrations will be monitored frequently throughout Period 2, and CLTX-305 doses will be up- or down-titrated as needed to target normal cCa concentrations. Assessment of the 24-hour PK/PD profile of CLTX-305 with BID dosing will be conducted on Day 5.\nAs a result, all remaining subjects in Period 2 will receive an initial CLTX-305 90 mg BID dose for at least 3-4 doses for evaluation of safety, tolerability and the ability to modulate cCa levels. The CLTX-305 dose will be up- or down-titrated as needed to maintain cCa levels below 10 mg/dL and blood phosphorus levels above the lower limit of normal. […]"}, "subjects with ADH1 [3]": {"tested_on": "subjects with ADH1", "test": "Phase 2b open-label dose-ranging study, Period 1 / Cohort 1", "assay_type": "in vivo, human", "excerpt": "A Phase 2b, open-label dose-ranging study is designed to evaluate the safety, tolerability, and efficacy of CLTX-305 to maintain normalized albumin-corrected blood calcium (cCa) in subjects with hypocalcemia due to ADH1. An overview scheme of the Phase 2b study is illustrated in FIG. 2.\nPeriod 1: an inpatient stay that consists of 5 dosing days during which subjects will undergo a once-daily (QD) dose escalation for 3 days followed by 2 days of twice daily (BID) dosing at an individualized test dose of CLTX-305.\nIn Period 1, eligible Cohort 1 subjects are admitted to the NIH CC after completing screening tests. On days 1-3 of admission, Cohort 1 subjects will undergo single daily dosing and protocol-specified dose-escalation of CLTX-305 from the initial dose of 30 mg on Day 1, increasing to a maximum dose of 180 mg on Day 3. Based on the individualized responses to QD dose escalation an individualized dose of CLTX-305 will be chosen for BID administration on Days 4 and 5.\nDays 1, 2 and 3 (QD Dose Escalations): Up to 8 subjects (minimum of 5) will undergo a single-dose, dose-escalation over the first 3 days of admission in Period 1. Morning doses will be administered on Days 1, 2 and 3, respectively, accompanied by frequent blood and urine sampling for 24-hours for PK/PD measures. CLTX-305 will be administered in the morning within 30 minutes prior to breakfast. […]\nIn order to characterize both the pre-study calcemic status as well as changes associated with experimental interventions, the protocol will rely on frequent measurement of albumin-corrected blood calcium concentrations. […] The main indicator of normal versus abnormal blood calcium levels will be based on the correction for serum or plasma albumin according to the formula corrected calcium (cCa)=measured total calcium (mg/dL)+0.8(4−albumin (g/dL)) OR measured total calcium (mmol/L)+0.2(4−albumin (g/dL)), recognizing that the total calcium reported in SI units (mmol/L) can be converted to conventional units (mg/dL) by multiplying by 4. […]"}}, "note": "At least one structure is not confirmed: it was looked up by name or label, or the drawing left a doubt.", "data": [{"molecule": "Cc1cc(-c2ccccc2[C@@H](C)OC[C@H](O)CNC(C)(C)Cc2ccc(Cl)c(F)c2)ccc1C(=O)O", "note": "[CLTX-305, encaleret]", "values": [{"measurement": "tachyphylaxis of stimulatory effect on iPTH", "setting": "[1]; after 6 and 12 months of once daily administration", "result": "without evidence for tachyphylaxis"}, {"measurement": "duration of second lower plateau level of iPTH", "setting": "[1]; doses of 30 mg and above, once daily", "result": "up to 12 hours"}, {"measurement": "duration of consistent elevations in intact PTH post single daily dosing", "setting": "[1]; healthy postmenopausal women, repeat doses of 15 or 20 mg", "result": "3 to 4", "unit": "h"}, {"measurement": "endogenous serum parathyroid hormone (PTH) and calcium (Ca)", "setting": "[1]; subjects with presumed normal CaSR function", "result": "dose-related increases"}, {"measurement": "mean PTH and phosphate relative to normal range", "setting": "subjects with ADH1 [2]; 13 participants, Period 1 and 2", "result": "Mean PTH increased and phosphate decreased into the normal range"}, {"measurement": "mean corrected blood calcium and 24-hour urine calcium excretion", "setting": "subjects with ADH1 [2]; 13 participants, Periods 1 and 2", "result": "normalized"}, {"measurement": "blood mineral levels following 5-day dosing", "setting": "subjects with ADH1 [2]; Period 2", "result": "consistent with those shown in FIGS. 9A-9D"}, {"measurement": "urinary calcium excretion", "setting": "subjects with ADH1 [3]; Period 1, all subjects while on CLTX-305 and eucalcemic", "result": "normal or undetectable in all subjects"}, {"measurement": "blood calcium, PTH and phosphate relative to normal range", "setting": "subjects with ADH1 [3]; Period 1, by day 5", "result": "generally normalized and maintained within the normal range"}, {"measurement": "blood calcium, phosphorus and magnesium relative to normal range", "setting": "subjects with ADH1 [3]; Period 1, days 4 and 5", "result": "mostly maintained within the normal range"}]}]}
